Experimental data as given in publication PMC5973619.
Like-named read-outs stand apart in the source and are kept apart here. These are yes or no findings as the source states them, for the method shown. In cells and extracts the contact can be indirect. Some binding calls cover weakened binding; strength is not graded here. For some of these results: Sequences can lack the tags named with a protein.

By UniProt entry, the sequences of proteins in these tests, tags left out.
UniProt O94901: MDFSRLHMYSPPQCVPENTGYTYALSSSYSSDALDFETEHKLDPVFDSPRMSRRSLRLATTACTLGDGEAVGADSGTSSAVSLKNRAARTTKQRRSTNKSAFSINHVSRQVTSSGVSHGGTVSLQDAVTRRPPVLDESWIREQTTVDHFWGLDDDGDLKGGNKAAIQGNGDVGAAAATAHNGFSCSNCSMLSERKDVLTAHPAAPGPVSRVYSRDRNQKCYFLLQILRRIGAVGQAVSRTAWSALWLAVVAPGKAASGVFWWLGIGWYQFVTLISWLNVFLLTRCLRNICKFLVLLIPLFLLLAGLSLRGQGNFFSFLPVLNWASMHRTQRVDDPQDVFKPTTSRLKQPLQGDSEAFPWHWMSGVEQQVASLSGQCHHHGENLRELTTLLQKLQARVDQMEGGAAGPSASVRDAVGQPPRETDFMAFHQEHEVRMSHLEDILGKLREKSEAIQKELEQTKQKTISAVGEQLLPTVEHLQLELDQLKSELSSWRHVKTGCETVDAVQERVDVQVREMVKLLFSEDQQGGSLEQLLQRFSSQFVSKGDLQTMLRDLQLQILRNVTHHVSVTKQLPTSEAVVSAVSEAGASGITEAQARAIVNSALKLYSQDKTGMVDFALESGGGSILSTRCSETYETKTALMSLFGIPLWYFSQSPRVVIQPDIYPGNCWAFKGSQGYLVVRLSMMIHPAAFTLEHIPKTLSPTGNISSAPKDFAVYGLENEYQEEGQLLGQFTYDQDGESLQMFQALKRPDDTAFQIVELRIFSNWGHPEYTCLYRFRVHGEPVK

What was measured:
[1] = molecular target: Sun1 (human (endogenous in HeLa)) (UniProt O94901); assay: cross-linking; HeLa cells in PBS containing .5% formaldehyde for 10min room temperature before lysis; reducing SDS-PAGE and blot for Sun1 and Sun2
[2] = molecular target: Nesprin1 (human (endogenous in HeLa)) (UniProt Q8NF91); assay: co-IP; 2 ug Nesprin1 or Nesprin2 antibody and protein A/G beads on RIPA lysate of isolated nuclei of HeLa cells (unperturbed, or stable lines induced with doxycycline: GFP-SR-KASH, HA-mSun2, HA-Sun1 forms); blot for SUN proteins
[3] = molecular target: Nesprin2 (human (endogenous in HeLa and RPE-1)) (UniProt Q8WXH0); assay: as above
[4] = molecular target: Nesprin2 (human (endogenous in HeLa and RPE-1)) (UniProt Q8WXH0); assay: as above; remark: listed apart in the source

binding [1]	binding [2]	binding [3]	binding [4]	Molecule
binds	binds	binds	–	Sun1 (from UniProt O94901 1-785)
–	–	–	binds	HA-mSun2 (protein, UniProt Q8BJS4 1-731) MSRRSQRLTRYSQDDNDGGSSSSGASSVAGSQGTVFKDSPLRTLKRKSSNMKHLSPAPQLGPSSDSHTSYYSESVVRESYIGSPRAVSLARSALLDDHLHSEPYWSGDLRGRRRRGTGGSESSKANGLTAESKASEDFFGSSSGYSSEDDLAGYTDSDQHSSGSRLRSAASRAGSFVWTLVTFPGRLFGLLYWWIGTTWYRLTTAASLLDVFVLTRSRHFSLNLKSFLWFLLLLLLLTGLTYGAWHFYPLGLQTLQPAVVSWWAAKESRKQPEVWESRDASQHFQAEQRVLSRVHSLERRLEALAADFSSNWQKEAIRLERLELRQGAAGHGGGSSLSHEDALSLLEGLVSRREATLKEDLRRDTVAHIQEELATLRAEHHQDSEDLFKKIVQASQESEARVQQLKTEWKSMTQEAFQESSVKELGRLEAQLASLRQELAALTLKQNSVADEVGLLPQKIQAARADVESQFPDWIRQFLLGDRGARSGLLQRDEMHAQLQELENKILTKMAEMQGKSAREAAASLGQILQKEGIVGVTEEQVHRIVKQALQRYSEDRIGMVDYALESGGASVISTRCSETYETKTALLSLFGIPLWYHSQSPRVILQPDVHPGNCWAFQGPQGFAVVRLSARIRPTAVTLEHVPKALSPNSTISSAPKDFAIFGFDEDLQQEGTLLGTFAYDQDGEPIQTFYFQASKMATYQVVELRILTNWGHPEYTCIYRFRVHGEPAH
